Among all 6,900 compounds or so, fewer than 10 were called active. Calls follow the shape of the dose curve; as a rule, active = well fitted curve in the direction sought with a large enough effect; inconclusive = small, poorly fitted or top-dose-only effect, or another doubt; inactive = no such curve, though single readings can be large or run the other way. The list shows a part of the results.
Target: Metallo-beta-lactamase type 2 (Klebsiella pneumoniae) (UniProt C7C422)
Experiment: qHTS to identify inhibitors of the New Delhi Metallo-beta-lactamase (NDM): primary screen against the NCATS Gemini Collection; also: % of control where 0% means no effect
Settings: NDM-1 enzyme, meropenem hydrolysis, absorbance 300 nm; at 38.4 µM (top of the series) unless noted
Description: Assay Submitter (PI): James Inglese Ph.D., Patricia Dranchak Ph.D., Mahesh Aitha Ph.D. Assay Development and Screening Technology Laboratory (ADST) National Center for Advancing Translational Sciences (NCATS), Rockville, MD National Institute of Health (NIH), Bethesda, Maryland The metallo-beta-lactamases (MBL) are a main antibiotic resistance mechanism evolved by bacteria. There is an urgent clinical need for MBL inhibitors to mitigate this growing threat. To support a machine-based learning study, qHTS has been used to experimentally test inhibitors identified by prediction tools.
PROTOCOL TABLE (as described by Inglese et al., 2007) SEQUENCE No. (e.g., 1, 2, 3, etc.); […] (e.g., enzyme, Incubation, Reagent, etc.); VALUE; DESCRIPTION 1; NDM-1; 4 uL of 3 nM enzyme [2 nM final] in 50 mM HEPES (pH 7.0), 1 uM […], 0.01% Tween20; Use BioRaptr to dispense into Aurora black, clear bottom low base 1536-well plates 2; Compounds; 23 nL; Use Pin Tool (Wako) to transfer DMSO control and library compounds in DMSO 3; Incubate; >30 min 4; Reagent; 2 uL of 150 uM meropenem [50 uM final] 5; Incubate; 30 min. 6; Detector; Absorbance at 300 nm (bandwidth = 5 nm, 25 flashes/well) on Tecan Infinity NOTES (numbers refer to sequence above) 1; Column 1 of each plate received assay buffer without enzyme and columns 2-48 received enzyme for a final assay concentration of 2 nM. 2; Control plate contained DMSO in columns 1, 2, 3, and 4. 3; Compound interaction with enzyme. 4; Meropenem substrate was prepared in the same assay buffer as step 1 for a final assay concentration of 50 uM and added to all wells across the assay plates. 5; Substrate interaction with enzyme, plateau phase of kinetics. 6; Default reader settings were applied for absorbance read at 300 nm, bandwidth = 5 nm, 25 flashes/well. References: Inglese J, Shamu CE, Guy RK. 2007. Reporting data from high-throughput screening of small-molecule libraries. Nat Chem Biol. doi:10.1038/nchembio0807-438 Yasgar A, Shinn P, Jadhav A, Auld D, Michael S, Zheng W, Austin CP, Inglese J, Simeonov A. 2008. Compound Management for Quantitative High-Throughput Screening. J Lab Autom 13:79 - 89. doi:10.1016/j.jala.2007.12.004

Sequences of proteins named here, by UniProt entry; tags and fusion partners are left off. A change or cut given only in a name is not applied to a line headed by its entry.
UniProt C7C422: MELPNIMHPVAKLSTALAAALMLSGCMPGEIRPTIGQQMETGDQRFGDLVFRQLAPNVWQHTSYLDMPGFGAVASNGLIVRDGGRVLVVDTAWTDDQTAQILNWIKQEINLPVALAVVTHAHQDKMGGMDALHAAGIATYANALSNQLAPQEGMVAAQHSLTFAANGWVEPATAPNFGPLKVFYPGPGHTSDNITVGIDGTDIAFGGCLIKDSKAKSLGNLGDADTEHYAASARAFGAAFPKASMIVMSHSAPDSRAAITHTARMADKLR

Activity % (negative = inhibition), inactive:
Fc1ccc(C2Cn3cnc(-c4nc(-c5ccsc5)no4)c3CO2)cc1 (centres undefined) -1.04%
c1ccc(C(c2ccccc2)N2CCN(Cc3nc(-c4ccccn4)no3)CC2)cc1 -8.95%
COc1ccc(NC(=O)N[C@H]2C[C@@H](C(=O)N[C@@H](Cc3cccs3)C(N)=O)N(C(=O)CSC)C2)cc1 2.07%
O=C(O)c1cc(-c2cccc(CO)c2)cc(S(=O)(=O)NC2CCCC2)c1 10.6%
COCC1(CNC(=O)c2cnccn2)C[C@@H](O)[C@@H](O)C1 (some centres undefined) 20.1% [at 77.1 µM]
Cc1noc2c(NCCN3CCOCC3)cc(-c3ccsc3)nc12 84% [at 57.5 µM]
Cc1cccc(C2CCCN(C(=O)c3cn(CCc4ccccc4)nn3)C2)c1 (centres undefined) -1.32%
CCc1nncn1C1CCN(C(=O)c2cc(-c3cccs3)[nH]n2)C1 (centres undefined) 4.15%
COc1ccc(C(=O)NC[C@H]2O[C@@H](CC(=O)N3CCN(c4ccccc4)CC3)[C@H](O)[C@@H]2O)cc1 13.5%
COc1cccc(CN2CCOC3CCN(Cc4ccccc4Cl)CC3C2=O)c1 (centres undefined) 7.56% [at 57.5 µM]
Cn1nc(C(=O)N2CCCC(CN3CCOCC3)CC2)c2ccccc21 (centres undefined) 2.41%
COc1nc(C)c(C(=O)NC2CC(c3cc(=O)[nH]c(C)n3)C2)s1 (centres undefined) -0.677%
Cc1cn2nc(C(=O)NC3CCCC3)cc2c(N2CCSCC2)n1 48.6%
CC(c1cccs1)N(C)C(=O)c1ccccc1Cl (centres undefined) 11.2% [at 57.5 µM]
COCCc1noc(CNC(=O)C2COc3ccccc3C2)n1 (centres undefined) 6.51%
COCCN1CCCC2(CCN(C(=O)CN3C(=O)CNC3=O)C2)C1=O (centres undefined) 23.7%
OC1(CN2CCC(c3nc(-c4ccccc4)no3)CC2)CNCCOC1 (centres undefined) 1.84%
COCCC1(CO)CCCN(C(=O)CCc2c(C)noc2C)C1 (centres undefined) 1.33%
CCc1nccc(-c2c(-c3ccccc3)ncn2CC(O)c2ccccc2)n1 (centres undefined) 0.0694%
COC(=O)[C@H](NC(=O)[C@@H]1C[C@H](NC(=O)Nc2ccc(OC)cc2)CN1C(=O)C=C(C)C)C(C)C 1.06%
O=C(c1ccccc1F)N1CCC(N2Cc3ccccc3C2=O)CC1 6.11%
O=C1CCCCC(Cc2ccccc2)(C(=O)NCc2ccc(F)cc2)N1 (centres undefined) -11.7%
O=C(c1cc(-c2ccc(F)cc2)n[nH]1)N1CC2CC(C1)[C@H]1CCCC(=O)N1C2 (some centres undefined) -2.41%
O=C1N(CC2CC2)CCCC12CCN(S(=O)(=O)N1CCOCC1)C2 (centres undefined) 64.4%
CCCNC(=O)N1CCCC2(CCC(=O)N(Cc3cnc(C)cn3)C2)C1 (centres undefined) 2.67%
Cc1ccc(CN2CCn3c(nnc3[C@@H]3C[C@@H](O)CN3Cc3cccnc3)C2)s1 0.15%
O=C([C@@H]1Cc2nc[nH]c2CN1Cc1ccc(C(F)(F)F)cc1)N1CCOCC1 1.7% [at 57.5 µM]
Cc1cnc(CCNC(=O)Nc2ccc3c(c2)OCCO3)n1C1CCC1 43.7%
CNC(=O)[C@@H]1CN(C(=O)Cc2cc(C)no2)C[C@H]1COC 5.89%
COc1ccc2[nH]c(C[C@@H]3C[C@@H](C(C)C)[C@H](CNC(=O)c4cccnc4)C=C3C)nc2n1 51.4% [at 57.5 µM]
CCCS(=O)(=O)Nc1ccc([C@H]2OCC(=O)N(CC(=O)N(C)C)[C@@H]2CO)cc1 17.5% [at 57.5 µM]
Cc1nc(CN2CCOc3cc([S+](=O)([O-])Nc4ccccc4)ccc3C2)cs1 1.72% [at 57.5 µM]
CCn1cc(CN(C)Cc2ccccc2)ccc1=O 8.06%
Cc1noc(C)c1CN[C@@H]1CCC[C@@H](C(=O)N2CCN(C)CC2)CC(=O)N(C)C1 -2.64% [at 57.5 µM]
O=C(Cc1cccnc1)N1CCC2(CC1)CC(CCOc1ccc(F)cc1)CCO2 (centres undefined) 0.0542%
CC(C)N1C(=O)C2(CCCC2)C1C(=O)NCCCN1CCc2ccccc2C1 (centres undefined) -4.17%
O=C(c1nc2ccccc2n(C2CCCC2)c1=O)N1CCCC1 -0.57% [at 57.5 µM]
CCN1CCN(C(=O)C2CCc3nnc(-c4cccc(C(F)(F)F)c4)n32)CC1 (centres undefined) -2.08%
CS(=O)(=O)N(Cc1cccnc1)C1CN(C(=O)CCc2c[nH]c3ccccc23)C1 44.6%
COCCNc1cc(-c2ccc3ccccc3n2)c2cc[nH]c2n1 3.93%
CCCN1CCC(N2CCCC(Cc3ccccc3)(C(=O)OCC)C2)CC1 (centres undefined) -3.78%
COc1ccccc1CNC(=O)C[C@@H]1c2nc(-c3cccnc3)sc2C[C@@H]2[C@](C)(CO)[C@H](O)CC[C@]21C 0.0251%
COc1cccc(CN2CCCCC2c2nc(CCOCC3CCOCC3)no2)c1 (centres undefined) -0.867%
Cc1ccc2nc(CO[C@H]3CN(C4CCN(C)CC4)C[C@H]3F)[nH]c2c1 6.47% [at 57.5 µM]
COc1ccc(NC(=O)C2CCN(C(=O)c3ncn4c3COC(c3ccccc3)C4)CC2)cc1Cl (centres undefined) 24.2%
NS(=O)(=O)c1ccc(F)c(C(=O)NCCSc2ccccn2)c1 2.3%
COc1ccc(-c2cc3nc4c(c(=O)n3[nH]2)CN(C(=O)CN(C)S(=O)(=O)c2cnc[nH]2)CC4)cc1 9.73%
Cc1ccc([S+](=O)([O-])N2CCCC2C(=O)N2CCC3(CC2)CC(=O)Nc2ccccc2O3)cc1 (centres undefined) 20.3%
Cc1cc(F)ccc1NC(=O)CCC1CCCN(C(=O)CC2=CCCCC2)C1 (centres undefined) 1.37%
CCCC1=Nc2cc(C(=O)NCCCN3CCCCC3CC)ccc2Sc2ccc(C)cc21 (centres undefined) -0.812%
Cc1cccc(C(C(=O)N2CCN(Cc3noc(C)n3)CC2)N(C)C)c1 (centres undefined) -7.52%
O=C(Cc1ccccc1)NCc1ccnc2[nH]ccc12 4.52% [at 57.5 µM]
COc1ccc(-c2noc(-c3nc(-c4ccc(N(C)C)cc4)no3)n2)cc1OC 8.38%
O=C(CN1CCCc2nc(-c3ccncc3)ncc2C1=O)NCc1cc(F)ccc1F 0.922%
CC(C)CCN1CC2(CCCN(C(=O)c3ccn(C)c(=O)c3)C2)CCC1=O (centres undefined) 9.09%
OCC(O)c1cc2n(n1)CCN(Cc1ccccc1Cn1cccn1)C2 (centres undefined) -1.97%
CN(C)CC1(O)CCN(C(=O)Cn2cc(C(=O)C3CC3)c3ccccc32)C1 (centres undefined) 69.4%
O=C(CCn1cncn1)N1CCC(c2nccn2Cc2cccnc2)CC1 -1.12%
Cc1ccccc1CCN1CCC(CN(C(=O)c2ccoc2C)C2CCCC2)CC1 -3.03%
CNC(=O)[C@@H]1CN(C(=O)c2conc2C)C[C@H]1COC 5.97%
NC(=O)c1cccc(CN2CCCC3(Cc4ccccc4N(C(=O)c4ccc(Cl)cc4)C3)C2)c1 (centres undefined) 4.26%
CNC(=O)[C@@H](C1CC1)N1CCC[C@H]1C(=O)NCc1cccnc1 24.8% [at 57.5 µM]
CCOC(=O)c1cn(C2CN(S(=O)(=O)c3ccc(C)c(C)c3)C2)nn1 -0.484%
Cn1ncc2c(C(=O)NC3CCCCCC3)cc(C(C)(C)C)nc21 16.2% [at 57.5 µM]
Cc1ncoc1C(=O)N1C[C@@H](COCC2CC2)[C@H](c2ccccn2)C1 -0.784%
Cc1cccc(CN2CCc3nnc([C@@H]4C[C@@H](O)CN4C)n3CC2)c1 3.58%
NC(=O)CN1CCC(c2nc(-c3cn4ccccc4n3)no2)CC1 -2.18%
CC(C)CC(N)c1nnc2n1CCNCC2 (centres undefined) 21.9%
COc1cccc(-c2ccc3c(n2)CNC(=O)CO3)c1 28% [at 77.1 µM]
COC1CCC12CCN(C(=O)c1ccc(C)s1)CC2 (centres undefined) 2.68%
COc1cccc(S(=O)(=O)N2CC(Oc3ccccc3-c3noc(C)n3)C2)c1 11.3%
Cc1nn(C)c(C)c1S(=O)(=O)N1CCC2(CC1)CC(N(C)Cc1ccccc1)CCO2 (centres undefined) 1.55%
CC1(C)C[C@H](NCc2ccc(CO)o2)[C@@]2(CCC(=O)N3CCOCC3)CC[C@](C)(O)C[C@@H]12 -0.742%
CC(C)CN1C(=O)C(C)(C)[S+](=O)([O-])[C@@H]2CN(c3ccc(OC(F)(F)F)cc3)C[C@@H]21 4.57%
COCCN(CC1CCN(Cc2ccccc2F)CC1)C(=O)c1cc[nH]c1C 0.4%
O=C(c1ccc2ccccc2n1)N1CCc2nnc(CCc3ccccc3)n2CC1 2.22%
Cc1ncccc1OC1(C(=O)N2CCCC2c2nc(C(C)C)no2)CCNCC1 (centres undefined) 0.544%
COc1cc(OC)cc(C(=O)N2CCC(c3nc(C4CCOC4)no3)CC2)c1 (centres undefined) 5.07%
CC1CCCN1C(=O)c1cc(-c2ccc(C(F)(F)F)cc2)nc2c1cnn2C (centres undefined) 15.8%
CC(C)(C)c1nc(C(=O)NCc2cccnc2)n2ccncc12 1.05%
Cn1nc2n(c1=O)CCC(NS(=O)(=O)c1cccnc1)CC2 (centres undefined) 6.88%
CN(Cc1ccccc1)c1ncnc2c1CCN(C(=O)[C@@H](N)CO)CC2 0.912%
COCC(=O)N(C1CCOCC1)C1CCN(C(=O)Cc2ccc(Cl)cc2)CC1 -1.71%
CC(C)(C)NC(=O)N1CCC(c2nnc3n2C(C(=O)NCC2CCCCC2)CC3)CC1 (centres undefined) 6.52% [at 57.5 µM]

Reference: PubChem BioAssay AID1794845 (National Center for Advancing Translational Sciences (NCATS), 2023)
